At least one compound was matched to its structure with a doubt left.
Key:
[1] = test system: bronchial epithelial COPD signature; experiment: GLUCOLD trial (GSE36221): endobronchial biopsy gene expression, GSEA against the airway COPD signature; type: in vivo, human
[2] = test system: bronchial epithelial COPD signature; conditions: COPD cohort (GLUCOLD); cited from earlier work

C[C@@H]1C[C@H]2[C@@H]3C[C@H](F)C4=CC(=O)C=C[C@]4(C)[C@@]3(F)[C@@H](O)C[C@]2(C)[C@@]1(O)C(=O)SCF [fluticasone]
CLDN8 gene expression change after treatment ([1]; airway epithelium of subjects with COPD): increased
SERPINB13 gene expression change with treatment ([1]; airway of patients with COPD): decreased
TMPRSS11D gene expression change with treatment ([1]; airway of patients with COPD): decreased
lung function outcome of treatment [2]: improvement in lung function

Reference: patent US10533225B2, “Methods and systems for monitoring, diagnosing, and treating chronic obstructive pulmonary disease” (Trustees of Boston University, priority 2012, dated 2020)
